From article PMC5546437
These are yes or no findings as the source states them, for the method shown. In cells and extracts the contact can be indirect. Some entries that bind do so weakly or less than the wild type.

By UniProt entry, the sequences of proteins in these tests, tags left out.
UniProt P38398: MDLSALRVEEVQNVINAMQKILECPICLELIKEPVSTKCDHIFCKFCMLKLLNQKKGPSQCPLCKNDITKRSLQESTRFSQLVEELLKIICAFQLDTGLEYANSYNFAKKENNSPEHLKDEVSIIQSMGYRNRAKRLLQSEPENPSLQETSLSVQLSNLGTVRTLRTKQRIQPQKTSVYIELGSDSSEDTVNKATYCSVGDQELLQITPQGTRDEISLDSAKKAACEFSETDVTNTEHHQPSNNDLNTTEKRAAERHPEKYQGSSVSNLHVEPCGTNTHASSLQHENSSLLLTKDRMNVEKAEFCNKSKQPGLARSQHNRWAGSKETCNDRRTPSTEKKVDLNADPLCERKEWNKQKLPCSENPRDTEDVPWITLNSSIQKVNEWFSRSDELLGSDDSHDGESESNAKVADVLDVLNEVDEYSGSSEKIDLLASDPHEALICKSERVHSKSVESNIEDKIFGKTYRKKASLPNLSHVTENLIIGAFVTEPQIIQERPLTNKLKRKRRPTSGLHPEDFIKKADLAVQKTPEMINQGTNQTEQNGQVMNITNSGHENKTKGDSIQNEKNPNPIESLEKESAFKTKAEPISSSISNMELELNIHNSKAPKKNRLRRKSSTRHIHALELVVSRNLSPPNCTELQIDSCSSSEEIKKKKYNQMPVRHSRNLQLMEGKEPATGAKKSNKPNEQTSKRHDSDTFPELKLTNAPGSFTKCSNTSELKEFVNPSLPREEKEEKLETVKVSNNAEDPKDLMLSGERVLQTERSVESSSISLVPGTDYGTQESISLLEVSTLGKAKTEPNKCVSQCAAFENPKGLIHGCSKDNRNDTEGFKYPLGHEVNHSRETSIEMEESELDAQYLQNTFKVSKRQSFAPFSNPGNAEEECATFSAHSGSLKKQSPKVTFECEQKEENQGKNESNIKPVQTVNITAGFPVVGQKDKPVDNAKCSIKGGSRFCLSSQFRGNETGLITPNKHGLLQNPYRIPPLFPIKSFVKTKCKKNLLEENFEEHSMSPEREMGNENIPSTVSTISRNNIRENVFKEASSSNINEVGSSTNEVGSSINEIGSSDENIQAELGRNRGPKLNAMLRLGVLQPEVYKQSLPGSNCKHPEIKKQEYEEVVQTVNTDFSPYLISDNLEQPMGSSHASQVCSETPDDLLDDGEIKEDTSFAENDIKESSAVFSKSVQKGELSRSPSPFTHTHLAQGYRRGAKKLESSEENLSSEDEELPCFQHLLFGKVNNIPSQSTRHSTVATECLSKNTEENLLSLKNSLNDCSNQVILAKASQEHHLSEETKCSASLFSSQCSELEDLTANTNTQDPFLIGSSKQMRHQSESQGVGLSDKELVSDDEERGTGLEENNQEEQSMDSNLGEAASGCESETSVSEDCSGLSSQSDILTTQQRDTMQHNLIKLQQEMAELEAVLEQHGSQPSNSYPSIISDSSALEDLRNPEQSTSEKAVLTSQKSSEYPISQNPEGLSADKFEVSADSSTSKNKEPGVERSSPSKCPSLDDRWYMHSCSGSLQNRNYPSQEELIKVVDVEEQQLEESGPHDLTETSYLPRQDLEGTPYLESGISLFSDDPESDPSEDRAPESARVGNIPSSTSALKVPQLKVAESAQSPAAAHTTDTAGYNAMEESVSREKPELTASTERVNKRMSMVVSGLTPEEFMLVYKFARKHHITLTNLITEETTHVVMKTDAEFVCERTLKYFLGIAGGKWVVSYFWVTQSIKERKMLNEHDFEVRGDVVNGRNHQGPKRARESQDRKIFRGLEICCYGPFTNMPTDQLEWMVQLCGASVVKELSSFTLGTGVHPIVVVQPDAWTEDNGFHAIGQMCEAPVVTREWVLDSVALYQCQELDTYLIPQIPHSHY

Molecular target: BRCA1, endogenous in HCT-15 cells (human (endogenous in HCT-15)) (UniProt P38398)
Assay: co-IP; lysates of control and CPT-treated (5 uM SN-38) HCT-15 cells, endogenous proteins; immunoprecipitation with anti-BRCA1, anti-topoI or IgG, then immunoblot

binding: binds
Substance: DNA topoisomerase I (topoI), endogenous in HCT-15 cells (from UniProt P11387 1-765) (enzyme)
